Reference: publication PMC12350150
No constants are given. Whether binding was seen depends on the method and setting. Binding seen in cells or lysates may run through a third protein. For some assays here: Binding can be weak; no strength is given.

Chains of the proteins cited; added tags and fusions are not shown. Lines headed by an entry give the natural chain unless they say otherwise; changes in a name come on top.
UniProt Q06890: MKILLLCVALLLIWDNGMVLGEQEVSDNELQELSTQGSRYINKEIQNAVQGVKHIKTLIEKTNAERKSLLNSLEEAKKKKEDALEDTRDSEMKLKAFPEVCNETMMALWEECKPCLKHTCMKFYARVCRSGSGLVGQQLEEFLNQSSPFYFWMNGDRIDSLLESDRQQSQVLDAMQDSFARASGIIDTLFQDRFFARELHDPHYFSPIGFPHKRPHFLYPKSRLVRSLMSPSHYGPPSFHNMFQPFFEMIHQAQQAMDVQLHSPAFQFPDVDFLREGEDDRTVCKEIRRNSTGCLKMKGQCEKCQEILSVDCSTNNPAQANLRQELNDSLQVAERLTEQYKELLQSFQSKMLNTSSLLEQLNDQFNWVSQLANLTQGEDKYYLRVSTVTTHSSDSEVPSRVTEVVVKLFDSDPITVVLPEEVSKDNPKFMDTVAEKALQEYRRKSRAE
UniProt Q80U63: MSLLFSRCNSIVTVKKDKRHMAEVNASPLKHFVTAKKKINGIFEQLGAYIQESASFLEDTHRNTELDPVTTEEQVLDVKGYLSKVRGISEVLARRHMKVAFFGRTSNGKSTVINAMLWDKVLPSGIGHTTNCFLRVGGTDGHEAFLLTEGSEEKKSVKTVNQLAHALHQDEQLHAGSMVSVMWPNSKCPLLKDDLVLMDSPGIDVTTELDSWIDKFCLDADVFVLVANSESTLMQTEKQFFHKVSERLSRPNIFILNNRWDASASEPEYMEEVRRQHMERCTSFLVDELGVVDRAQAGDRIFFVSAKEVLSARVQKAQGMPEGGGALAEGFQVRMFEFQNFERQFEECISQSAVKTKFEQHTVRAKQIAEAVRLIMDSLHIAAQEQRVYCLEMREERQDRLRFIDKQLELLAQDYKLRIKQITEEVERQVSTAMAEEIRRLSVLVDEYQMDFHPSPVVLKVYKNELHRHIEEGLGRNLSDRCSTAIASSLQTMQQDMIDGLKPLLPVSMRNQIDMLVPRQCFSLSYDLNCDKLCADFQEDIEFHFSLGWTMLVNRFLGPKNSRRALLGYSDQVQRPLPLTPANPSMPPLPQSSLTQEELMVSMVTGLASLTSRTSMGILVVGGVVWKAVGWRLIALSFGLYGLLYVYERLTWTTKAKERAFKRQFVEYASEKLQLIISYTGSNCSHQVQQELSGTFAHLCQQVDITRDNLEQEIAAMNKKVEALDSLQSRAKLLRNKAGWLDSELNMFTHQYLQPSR

Assays:
cClu-mut1-v5 (murine) = cClu-mut1-v5 (murine) (UniProt Q06890); assay: co-IP; v5-tagged cClu (wild type or mutant) co-expressed with a 10 × myc-tagged partner in HPC7 cells; Pierce IP Lysis Buffer; antibody cross-linked to Dynabeads Protein G, lysate rotated at 4 °C overnight; immunoblots on the ProteinSimple WES
cClu-mut2-v5 (murine) = cClu-mut2-v5 (murine) (UniProt Q06890); assay: as above

- binding (cClu-mut1-v5 (murine)): binds
- binding (cClu-mut2-v5 (murine)): no binding
Substance: Mfn2-10 × myc (from UniProt Q80U63 1-757)
